Test results: article PMC3799434, “RNA polymerase III-specific general transcription factor IIIC contains a heterodimer resembling TFIIF Rap30/Rap74” (Nucleic Acids Research, 2013)
No constants are given. Whether binding was seen depends on the method and setting. Some entries that bind do so weakly or less than the wild type. Tags and fused reporters may be left off the sequences shown. Values belong to the binder of their own block, whether it stands above or below them.

Assays:
[1] = target: T1, Sfc1-NT/Sfc7 heterodimer (Schizosaccharomyces pombe) (UniProt O14229+A6X980); assay: SEC; gel filtration of the Sfc1-NT/Sfc7 heterodimer with the larger Sfc1 fragment; both purified
T1 sequence 1: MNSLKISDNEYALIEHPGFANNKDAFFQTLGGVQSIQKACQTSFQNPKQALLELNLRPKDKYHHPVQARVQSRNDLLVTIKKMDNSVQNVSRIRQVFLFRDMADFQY
T1 sequence 2: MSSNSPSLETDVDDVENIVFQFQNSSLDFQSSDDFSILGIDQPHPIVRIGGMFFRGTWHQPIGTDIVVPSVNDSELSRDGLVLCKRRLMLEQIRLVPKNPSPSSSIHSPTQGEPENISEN

[2] = target: T1, Sfc1-NT/Sfc7 heterodimer (Schizosaccharomyces pombe); assay: ion-exchange chromatography; fragments from limited proteolysis of the purified Sfc1/Sfc7 heterodimer, separated by ion-exchange chromatography; both purified
[3] = target: T2, Sfc1_(1-110(K48A,Q49A)) (Schizosaccharomyces pombe) (UniProt O14229); assay: crystal structure; hanging-drop vapour diffusion at 4°C; 0.1 M HEPES pH 7, 1.4 M ammonium sulphate; Hg derivative, SAD, 2.4 Å; both purified
T2 sequence: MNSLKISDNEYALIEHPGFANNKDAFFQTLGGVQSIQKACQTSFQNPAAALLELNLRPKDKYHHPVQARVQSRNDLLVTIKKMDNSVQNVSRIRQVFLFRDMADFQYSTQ

[4] = target: T3, Sfc1 (S. pombe TFIIIC τA subunit), full length (Schizosaccharomyces pombe) (UniProt O14229); assay: co-purification after co-expression; His-tagged Sfc1 and untagged Sfc7 co-expressed in E. coli; Ni-NTA, TEV digestion, second Ni-NTA, anion exchange (Mono Q), gel filtration (Superdex S200)
T3 sequence: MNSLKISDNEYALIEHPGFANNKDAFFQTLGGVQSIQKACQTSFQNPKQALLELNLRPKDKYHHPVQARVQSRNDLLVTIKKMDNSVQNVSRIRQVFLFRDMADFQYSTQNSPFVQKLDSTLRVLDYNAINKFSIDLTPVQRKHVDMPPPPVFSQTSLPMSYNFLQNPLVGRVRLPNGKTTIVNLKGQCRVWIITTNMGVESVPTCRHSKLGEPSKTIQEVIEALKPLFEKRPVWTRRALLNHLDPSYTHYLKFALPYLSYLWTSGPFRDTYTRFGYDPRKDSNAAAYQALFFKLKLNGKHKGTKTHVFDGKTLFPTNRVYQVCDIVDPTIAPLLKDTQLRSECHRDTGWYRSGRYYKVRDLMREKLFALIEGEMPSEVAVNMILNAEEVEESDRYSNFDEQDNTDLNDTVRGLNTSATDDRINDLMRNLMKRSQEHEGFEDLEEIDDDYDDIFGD

- binding [1]: no binding
- binding [2]: no binding
B1: larger protease-resistant Sfc1 fragment (residues 186-396) (domain or fragment, UniProt O14229 186-396)
chain: KGQCRVWIITTNMGVESVPTCRHSKLGEPSKTIQEVIEALKPLFEKRPVWTRRALLNHLDPSYTHYLKFALPYLSYLWTSGPFRDTYTRFGYDPRKDSNAAAYQALFFKLKLNGKHKGTKTHVFDGKTLFPTNRVYQVCDIVDPTIAPLLKDTQLRSECHRDTGWYRSGRYYKVRDLMREKLFALIEGEMPSEVAVNMILNAEEVEESDRY

- binding [3]: binds
B2: Sfc7_(1-101) (domain or fragment, UniProt A6X980 1-101)
chain: MSSNSPSLETDVDDVENIVFQFQNSSLDFQSSDDFSILGIDQPHPIVRIGGMFFRGTWHQPIGTDIVVPSVNDSELSRDGLVLCKRRLMLEQIRLVPKNPS

- binding [4]: binds
B3: Sfc7 (S. pombe TFIIIC τA subunit), full length (protein, UniProt A6X980 1-120)
chain: T1 sequence 2
